This is an account of results in article PMC10786693.

Sequences of proteins named here, by UniProt entry; tags and fusion partners are left off. A change or cut given only in a name is not applied to a line headed by its entry. Residues count along the entry.
UniProt Q99758: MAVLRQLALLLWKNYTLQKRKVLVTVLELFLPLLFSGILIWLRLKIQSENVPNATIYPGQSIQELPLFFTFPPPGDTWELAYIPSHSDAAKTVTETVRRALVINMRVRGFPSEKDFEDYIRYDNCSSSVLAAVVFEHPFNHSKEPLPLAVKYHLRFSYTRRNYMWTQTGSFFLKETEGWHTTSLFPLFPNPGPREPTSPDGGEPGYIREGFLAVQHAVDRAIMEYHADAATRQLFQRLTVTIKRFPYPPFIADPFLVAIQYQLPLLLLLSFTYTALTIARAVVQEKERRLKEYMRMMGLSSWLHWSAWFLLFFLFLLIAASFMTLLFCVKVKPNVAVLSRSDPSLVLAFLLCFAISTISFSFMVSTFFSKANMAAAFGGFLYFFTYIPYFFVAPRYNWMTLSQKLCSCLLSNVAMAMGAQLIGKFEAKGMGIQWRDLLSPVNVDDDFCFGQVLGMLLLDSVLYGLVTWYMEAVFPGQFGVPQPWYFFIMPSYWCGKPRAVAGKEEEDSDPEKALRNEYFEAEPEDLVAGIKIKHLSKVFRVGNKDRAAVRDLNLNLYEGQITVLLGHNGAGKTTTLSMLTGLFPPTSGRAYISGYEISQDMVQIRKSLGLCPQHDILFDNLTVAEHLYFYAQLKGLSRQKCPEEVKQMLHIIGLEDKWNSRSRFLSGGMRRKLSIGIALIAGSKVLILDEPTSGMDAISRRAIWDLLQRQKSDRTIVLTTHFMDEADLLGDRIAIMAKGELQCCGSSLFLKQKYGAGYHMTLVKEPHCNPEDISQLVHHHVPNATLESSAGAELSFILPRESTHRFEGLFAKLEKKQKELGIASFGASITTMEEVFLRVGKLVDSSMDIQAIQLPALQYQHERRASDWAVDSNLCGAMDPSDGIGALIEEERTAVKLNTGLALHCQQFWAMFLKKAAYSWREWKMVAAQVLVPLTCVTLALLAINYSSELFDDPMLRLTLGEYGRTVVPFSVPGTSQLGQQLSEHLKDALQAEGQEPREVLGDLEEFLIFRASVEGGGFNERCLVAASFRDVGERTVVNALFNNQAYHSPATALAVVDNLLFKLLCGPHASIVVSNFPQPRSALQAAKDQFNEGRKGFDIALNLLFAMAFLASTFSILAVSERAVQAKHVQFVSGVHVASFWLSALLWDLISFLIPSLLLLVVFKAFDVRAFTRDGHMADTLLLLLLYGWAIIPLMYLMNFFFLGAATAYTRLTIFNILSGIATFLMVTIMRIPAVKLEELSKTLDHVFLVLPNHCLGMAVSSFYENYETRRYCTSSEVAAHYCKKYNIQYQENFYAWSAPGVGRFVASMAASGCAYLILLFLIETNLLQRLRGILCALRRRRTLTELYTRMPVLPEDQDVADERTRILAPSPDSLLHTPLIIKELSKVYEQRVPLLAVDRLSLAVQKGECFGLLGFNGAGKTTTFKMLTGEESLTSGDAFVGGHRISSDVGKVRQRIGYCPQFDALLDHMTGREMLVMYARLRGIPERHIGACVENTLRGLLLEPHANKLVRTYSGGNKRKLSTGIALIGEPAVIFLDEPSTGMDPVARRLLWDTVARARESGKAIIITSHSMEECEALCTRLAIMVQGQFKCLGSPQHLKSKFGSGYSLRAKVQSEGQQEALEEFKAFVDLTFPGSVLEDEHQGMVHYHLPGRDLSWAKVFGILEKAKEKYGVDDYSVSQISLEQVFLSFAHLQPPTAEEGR
UniProt P51149: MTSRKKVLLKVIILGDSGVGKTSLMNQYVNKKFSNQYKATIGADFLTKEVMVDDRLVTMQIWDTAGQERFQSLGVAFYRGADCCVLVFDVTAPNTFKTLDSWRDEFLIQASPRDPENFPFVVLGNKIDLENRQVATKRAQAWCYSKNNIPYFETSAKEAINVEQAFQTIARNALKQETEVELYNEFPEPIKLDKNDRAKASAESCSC
UniProt P48643: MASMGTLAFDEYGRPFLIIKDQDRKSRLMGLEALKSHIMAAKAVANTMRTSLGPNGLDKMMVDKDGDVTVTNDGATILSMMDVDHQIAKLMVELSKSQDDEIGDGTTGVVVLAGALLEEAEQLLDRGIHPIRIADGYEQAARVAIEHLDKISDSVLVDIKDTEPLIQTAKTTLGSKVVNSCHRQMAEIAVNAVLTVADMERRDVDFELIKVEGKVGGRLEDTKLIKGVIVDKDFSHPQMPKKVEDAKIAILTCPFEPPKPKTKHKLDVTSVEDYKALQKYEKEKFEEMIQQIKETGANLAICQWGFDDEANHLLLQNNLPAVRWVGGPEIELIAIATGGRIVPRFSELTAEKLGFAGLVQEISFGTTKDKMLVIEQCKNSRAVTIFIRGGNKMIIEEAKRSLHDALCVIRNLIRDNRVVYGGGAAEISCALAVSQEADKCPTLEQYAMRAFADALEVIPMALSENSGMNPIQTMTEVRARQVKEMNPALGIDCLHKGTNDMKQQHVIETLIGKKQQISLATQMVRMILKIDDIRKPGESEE
UniProt P11166: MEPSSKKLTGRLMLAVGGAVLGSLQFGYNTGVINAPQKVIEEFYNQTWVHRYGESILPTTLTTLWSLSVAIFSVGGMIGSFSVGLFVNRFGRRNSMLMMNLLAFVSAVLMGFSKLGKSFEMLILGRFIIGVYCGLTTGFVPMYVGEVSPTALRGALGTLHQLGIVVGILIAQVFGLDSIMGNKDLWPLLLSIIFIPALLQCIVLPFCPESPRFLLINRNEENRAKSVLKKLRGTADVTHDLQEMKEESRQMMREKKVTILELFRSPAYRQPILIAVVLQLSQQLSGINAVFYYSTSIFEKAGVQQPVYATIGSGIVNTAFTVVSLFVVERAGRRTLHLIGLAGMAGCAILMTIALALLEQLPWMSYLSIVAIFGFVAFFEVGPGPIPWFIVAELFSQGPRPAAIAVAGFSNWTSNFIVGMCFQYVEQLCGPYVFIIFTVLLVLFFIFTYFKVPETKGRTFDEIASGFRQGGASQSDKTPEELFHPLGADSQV
UniProt P40189, residues 23-918: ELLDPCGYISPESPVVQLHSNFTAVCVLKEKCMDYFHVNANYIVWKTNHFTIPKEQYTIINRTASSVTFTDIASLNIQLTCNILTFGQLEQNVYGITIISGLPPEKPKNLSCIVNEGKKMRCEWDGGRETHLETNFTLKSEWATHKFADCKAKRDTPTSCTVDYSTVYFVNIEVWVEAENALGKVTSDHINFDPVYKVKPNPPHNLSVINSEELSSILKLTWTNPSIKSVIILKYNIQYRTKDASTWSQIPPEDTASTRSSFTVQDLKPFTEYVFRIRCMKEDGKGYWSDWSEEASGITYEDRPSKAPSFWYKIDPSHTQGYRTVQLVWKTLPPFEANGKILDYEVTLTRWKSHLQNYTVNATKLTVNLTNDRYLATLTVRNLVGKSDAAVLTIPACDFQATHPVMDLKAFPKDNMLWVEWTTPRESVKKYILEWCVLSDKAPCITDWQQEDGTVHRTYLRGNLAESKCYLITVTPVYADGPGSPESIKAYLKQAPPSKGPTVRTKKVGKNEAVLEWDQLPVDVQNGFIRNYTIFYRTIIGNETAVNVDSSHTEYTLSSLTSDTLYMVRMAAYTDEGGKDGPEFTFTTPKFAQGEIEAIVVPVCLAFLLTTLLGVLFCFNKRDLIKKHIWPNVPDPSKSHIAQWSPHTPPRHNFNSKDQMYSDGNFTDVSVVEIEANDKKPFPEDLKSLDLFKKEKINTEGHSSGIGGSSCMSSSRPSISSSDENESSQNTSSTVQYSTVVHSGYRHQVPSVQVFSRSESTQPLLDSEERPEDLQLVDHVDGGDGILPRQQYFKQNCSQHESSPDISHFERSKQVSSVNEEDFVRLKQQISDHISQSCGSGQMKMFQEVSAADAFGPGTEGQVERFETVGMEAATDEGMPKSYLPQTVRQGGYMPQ

Where two headings read alike, the source gives them in different places. Results are given in words; binding and its absence hold for the method and conditions named. In cells and extracts the contact can be indirect. A yes stands for co-enrichment or nearness to the bait. Other partners may have been found.

Common to all, as to experiment: affinity purification with mass spectrometry; ABCA3:GFP fusion protein immunoprecipitated from iAEC2 cell lysates with a monoclonal anti-GFP antibody (Invitrogen GF28R) versus IgG control; trypsinization; coprecipitated proteins identified by mass spectrometry (< 1% FDR cutoff)
Assay [1] addresses WT ABCA3:GFP fusion protein (ATP-binding cassette A3 with GFP knocked in at the endogenous stop codon) (human) (UniProt Q99758).
Assay [2] has as its target L101P mutant ABCA3:GFP fusion protein (human) (UniProt Q99758).
The target in assay [3] is WT ABCA3:GFP fusion protein (ATP-binding cassette A3 with GFP knocked in at the endogenous stop codon) (human) (UniProt Q99758). The source holds these as a separate data set.
For assay [4], the target named is L101P mutant ABCA3:GFP fusion protein (human) (UniProt Q99758). The source holds these as a separate data set.

With RAB7A (from UniProt P51149 1-207), the binding result in assay [1] and in assay [2] was “binds” each time. With CCT5 (from UniProt P48643 1-541), the binding entry in assay [2] is “binds”. As to “glucose transporter SLC2A1 (from UniProt P11166 1-492)”, the binding result in assay [1] is listed as “binds”. Still for that read-out and setting: in the case of “IL-6 signal transducer, IL6ST (from UniProt P40189 23-918)” it was “binds”.

B1: STXBP2 (protein, UniProt Q15833 1-593)
chain: MAPSGLKAVVGEKILSGVIRSVKKDGEWKVLIMDHPSMRILSSCCKMSDILAEGITIVEDINKRREPIPSLEAIYLLSPTEKSVQALIKDFQGTPTFTYKAAHIFFTDTCPEPLFSELGRSRLAKVVKTLKEIHLAFLPYEAQVFSLDAPHSTYNLYCPFRAEERTRQLEVLAQQIATLCATLQEYPAIRYRKGPEDTAQLAHAVLAKLNAFKADTPSLGEGPEKTRSQLLIMDRAADPVSPLLHELTFQAMAYDLLDIEQDTYRYETTGLSEAREKAVLLDEDDDLWVELRHMHIADVSKKVTELLRTFCESKRLTTDKANIKDLSQILKKMPQYQKELNKYSTHLHLADDCMKHFKGSVEKLCSVEQDLAMGSDAEGEKIKDSMKLIVPVLLDAAVPAYDKIRVLLLYILLRNGVSEENLAKLIQHANVQAHSSLIRNLEQLGGTVTNPGGSGTSSRLEPRERMEPTYQLSRWTPVIKDVMEDAVEDRLDRNLWPFVSDPAPTASSQAAVSARFGHWHKNKAGIEARAGPRLIVYVMGGVAMSEMRAAYEVTRATEGKWEVLIGSSHILTPTRFLDDLKALDKKLEDIALP
Take B1: the binding result in assay [3] and in assay [4] was “binds” in each case.

B2: TRAP, a TNF1-associated chaperone (protein, UniProt Q12931 60-704)
chain: STQTAEDKEEPLHSIISSTESVQGSTSKHEFQAETKKLLDIVARSLYSEKEVFIRELISNASDALEKLRHKLVSDGQALPEMEIHLQTNAEKGTITIQDTGIGMTQEELVSNLGTIARSGSKAFLDALQNQAEASSKIIGQFGVGFYSAFMVADRVEVYSRSAAPGSLGYQWLSDGSGVFEIAEASGVRTGTKIIIHLKSDCKEFSSEARVRDVVTKYSNFVSFPLYLNGRRMNTLQAIWMMDPKDVREWQHEEFYRYVAQAHDKPRYTLHYKTDAPLNIRSIFYVPDMKPSMFDVSRELGSSVALYSRKVLIQTKATDILPKWLRFIRGVVDSEDIPLNLSRELLQESALIRKLRDVLQQRLIKFFIDQSKKDAEKYAKFFEDYGLFMREGIVTATEQEVKEDIAKLLRYESSALPSGQLTSLSEYASRMRAGTRNIYYLCAPNRHLAEHSPYYEAMKKKDTEVLFCFEQFDELTLLHLREFDKKKLISVETDIVVDHYKEEKFEDRSPAAECLSEKETEELMAWMRNVLGSRVTNVKVTLRLDTHPAMVTVLEMGAARHFLRMQQLAKTQEERAQLLQPTLEINPRHALIKKLNQLRASEPGLAQLLVDQIYENAMIAAGLVDDPRAMVGRLNELLVKALERH
In the case of B2, the binding result in assay [3] was “binds”.

B3: CCT2 (protein, UniProt P78371 1-535)
chain: MASLSLAPVNIFKAGADEERAETARLTSFIGAIAIGDLVKSTLGPKGMDKILLSSGRDASLMVTNDGATILKNIGVDNPAAKVLVDMSRVQDDEVGDGTTSVTVLAAELLREAESLIAKKIHPQTIIAGWREATKAAREALLSSAVDHGSDEVKFRQDLMNIAGTTLSSKLLTHHKDHFTKLAVEAVLRLKGSGNLEAIHIIKKLGGSLADSYLDEGFLLDKKIGVNQPKRIENAKILIANTGMDTDKIKIFGSRVRVDSTAKVAEIEHAEKEKMKEKVERILKHGINCFINRQLIYNYPEQLFGAAGVMAIEHADFAGVERLALVTGGEIASTFDHPELVKLGSCKLIEEVMIGEDKLIHFSGVALGEACTIVLRGATQQILDEAERSLHDALCVLAQTVKDSRTVYGGGCSEMLMAHAVTQLANRTPGKEAVAMESYAKALRMLPTIIADNAGYDSADLVAQLRAAHSEGNTTAGLDMREGTIGDMAILGITESFQVKRQVLLSAAEAAEVILRVDNIIKAAPRKRVPDHHPC
Regarding B3, in assay [4], the binding result is “binds”.

B4: TMEM30A (protein, UniProt Q9NV96 1-361)
chain: MAMNYNAKDEVDGGPPCAPGGTAKTRRPDNTAFKQQRLPAWQPILTAGTVLPIFFIIGLIFIPIGIGIFVTSNNIREIEIDYTGTEPSSPCNKCLSPDVTPCFCTINFTLEKSFEGNVFMYYGLSNFYQNHRRYVKSRDDSQLNGDSSALLNPSKECEPYRRNEDKPIAPCGAIANSMFNDTLELFLIGNDSYPIPIALKKKGIAWWTDKNVKFRNPPGGDNLEERFKGTTKPVNWLKPVYMLDSDPDNNGFINEDFIVWMRTAALPTFRKLYRLIERKSDLHPTLPAGRYSLNVTYNYPVHYFDGRKRMILSTISWMGGKNPFLGIAYIAVGSISFLLGVVLLVINHKYRNSSNTADITI
As for B4, the binding entry in assay [3] and in assay [4] was “binds” throughout.

B5: ATP11A (protein, UniProt P98196 1-1134)
chain: MDCSLVRTLVHRYCAGEENWVDSRTIYVGHREPPPGAEAYIPQRYPDNRIVSSKYTFWNFIPKNLFEQFRRVANFYFLIIFLVQLIIDTPTSPVTSGLPLFFVITVTAIKQGYEDWLRHKADNAMNQCPVHFIQHGKLVRKQSRKLRVGDIVMVKEDETFPCDLIFLSSNRGDGTCHVTTASLDGESSHKTHYAVQDTKGFHTEEDIGGLHATIECEQPQPDLYKFVGRINVYSDLNDPVVRPLGSENLLLRGATLKNTEKIFGVAIYTGMETKMALNYQSKSQKRSAVEKSMNAFLIVYLCILISKALINTVLKYMWQSEPFRDEPWYNQKTESERQRNLFLKAFTDFLAFMVLFNYIIPVSMYVTVEMQKFLGSYFITWDEDMFDEETGEGPLVNTSDLNEELGQVEYIFTDKTGTLTENNMEFKECCIEGHVYVPHVICNGQVLPESSGIDMIDSSPSVNGREREELFFRALCLCHTVQVKDDDSVDGPRKSPDGGKSCVYISSSPDEVALVEGVQRLGFTYLRLKDNYMEILNRENHIERFELLEILSFDSVRRRMSVIVKSATGEIYLFCKGADSSIFPRVIEGKVDQIRARVERNAVEGLRTLCVAYKRLIQEEYEGICKLLQAAKVALQDREKKLAEAYEQIEKDLTLLGATAVEDRLQEKAADTIEALQKAGIKVWVLTGDKMETAAATCYACKLFRRNTQLLELTTKRIEEQSLHDVLFELSKTVLRHSGSLTRDNLSGLSADMQDYGLIIDGAALSLIMKPREDGSSGNYRELFLEICRSCSAVLCCRMAPLQKAQIVKLIKFSKEHPITLAIGDGANDVSMILEAHVGIGVIGKEGRQAARNSDYAIPKFKHLKKMLLVHGHFYYIRISELVQYFFYKNVCFIFPQFLYQFFCGFSQQTLYDTAYLTLYNISFTSLPILLYSLMEQHVGIDVLKRDPTLYRDVAKNALLRWRVFIYWTLLGLFDALVFFFGAYFVFENTTVTSNGQIFGNWTFGTLVFTVMVFTVTLKLALDTHYWTWINHFVIWGSLLFYVVFSLLWGGVIWPFLNYQRMYYVFIQMLSSGPAWLAIVLLVTISLLPDVLKKVLCRQLWPTATERVQTKSQCLSVEQSTIFMLSQTSSSLSF
Consider B5, for which the binding result in assay [3] and in assay [4] was “binds” throughout.

B6: TMEM30B (protein, UniProt Q3MIR4 1-351)
chain: MTWSATARGAHQPDNTAFTQQRLPAWQPLLSASIALPLFFCAGLAFIGLGLGLYYSSNGIKELEYDYTGDPGTGNCSVCAAAGQGRALPPPCSCAWYFSLPELFQGPVYLYYELTNFYQNNRRYGVSRDDAQLSGLPSALRHPVNECAPYQRSAAGLPIAPCGAIANSLFNDSFSLWHQRQPGGPYVEVPLDRSGIAWWTDYHVKFRNPPLVNGSLALAFQGTAPPPNWRRPVYELSPDPNNTGFINQDFVVWMRTAALPTFRKLYARIRQGNYSAGLPRGAYRVNITYNYPVRAFGGHKLLIFSSISWMGGKNPFLGIAYLVVGSLCILTGFVMLVVYIRYQDQDDDDEE
Take B6: the binding result in assay [3] and in assay [4] was “binds” each time.

B7: TMED10 (protein, UniProt P49755 32-219)
chain: ISFHLPINSRKCLREEIHKDLLVTGAYEISDQSGGAGGLRSHLKITDSAGHILYSKEDATKGKFAFTTEDYDMFEVCFESKGTGRIPDQLVILDMKHGVEAKNYEEIAKVEKLKPLEVELRRLEDLSESIVNDFAYMKKREEEMRDTNESTNTRVLYFSIFSMFCLIGLATWQVFYLRRFFKAKKLIE
For the molecule B7, the binding entry in assay [3] is recorded as “binds”.

B8: GIPC1 (protein, UniProt O14908 1-333)
chain: MPLGLGRRKKAPPLVENEEAEPGRGGLGVGEPGPLGGGGSGGPQMGLPPPPPALRPRLVFHTQLAHGSPTGRIEGFTNVKELYGKIAEAFRLPTAEVMFCTLNTHKVDMDKLLGGQIGLEDFIFAHVKGQRKEVEVFKSEDALGLTITDNGAGYAFIKRIKEGSVIDHIHLISVGDMIEAINGQSLLGCRHYEVARLLKELPRGRTFTLKLTEPRKAFDMISQRSAGGRPGSGPQLGTGRGTLRLRSRGPATVEDLPSAFEEKAIEKVDDLLESYMGIRDTELAATMVELGKDKRNPDELAEALDERLGDFAFPDEFVFDVWGAIGDAKVGRY
Regarding B8, the binding result in assay [3] and in assay [4] was “binds” each time.
